# The supplement of paper PMC8728848
# This is one part of the list.
# Assays:
# Test in all cases: glycan array binding signal (z-score within array); higher = stronger binding
# Conditions in all cases: glycan notation: IUPAC condensed, linker removed
# [1] = molecular target: Neu5Ac(a2-3)Gal(b1-4)GlcNAc(b1-6)GalNAc
# Method in brief: (§1)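 Negative Z-scores can be read as non-binding. The Z-score is calculated within each array and then averaged across arrays of one protein sequence at different concentrations or buffers and across linkers. Arrays, 3228 in all, were curated from the Consortium for Functional Glycomics database and kept only where the protein sequence was available.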
# [2] = molecular target: Neu5Ac(a2-3)Gal(b1-4)GlcNAc(b1-6)[Gal(b1-3)]GalNAc
# Method in brief: as §1
# [3] = molecular target: Neu5Ac(a2-3)Gal(b1-4)GlcNAc(b1-6)[Neu5Ac(a2-3)Gal(b1-3)]GalNAc
# Method in brief: as §1
# [4] = molecular target: Neu5Ac(a2-3)Gal(b1-4)GlcNAc6S
# Method in brief: as §1
# [5] = molecular target: Neu5Ac(a2-3)Gal(b1-4)[Fuc(a1-3)]GlcNAc
# Method in brief: as §1
# [6] = molecular target: Neu5Ac(a2-3)Gal(b1-4)[Fuc(a1-3)]GlcNAc(b1-2)Man
# Method in brief: as §1
# [7] = molecular target: Neu5Ac(a2-3)Gal(b1-4)[Fuc(a1-3)]GlcNAc(b1-3)Gal
# Method in brief: as §1
# [8] = molecular target: Neu5Ac(a2-3)Gal(b1-4)[Fuc(a1-3)]GlcNAc(b1-3)Gal(b1-4)GlcNAc
# Method in brief: as §1
# [9] = molecular target: Neu5Ac(a2-3)Gal(b1-4)[Fuc(a1-3)]GlcNAc(b1-3)Gal(b1-4)[Fuc(a1-3)]GlcNAc(b1-3)Gal(b1-4)[Fuc(a1-3)]GlcNAc
# Method in brief: as §1
# [10] = molecular target: Neu5Ac(a2-3)Gal(b1-4)[Fuc(a1-3)]GlcNAc(b1-3)GalNAc
# Method in brief: as §1
# [11] = molecular target: Neu5Ac(a2-3)Gal(b1-4)[Fuc(a1-3)]GlcNAc(b1-6)[Gal(b1-3)]GalNAc
# Method in brief: as §1
# [12] = molecular target: Neu5Ac(a2-3)Gal(b1-4)[Fuc(a1-3)]GlcNAc(b1-6)[Neu5Ac(a2-3)Gal(b1-3)]GalNAc
# Method in brief: as §1
# [13] = molecular target: Neu5Ac(a2-3)Gal(b1-4)[Fuc(a1-3)]GlcNAc6S
# Method in brief: as §1
# [14] = molecular target: Neu5Ac(a2-3)Gal6S(b1-4)GlcNAc
# Method in brief: as §1
# [15] = molecular target: Neu5Ac(a2-3)Gal6S(b1-4)[Fuc(a1-3)]GlcNAc
# Method in brief: as §1
# Neu5Ac(a2-3)GalNAc = molecular target: Neu5Ac(a2-3)GalNAc
# Method in brief: as §1
# [16] = molecular target: Neu5Ac(a2-3)GalNAc(b1-4)GlcNAc
# Method in brief: as §1
# [17] = molecular target: Neu5Ac(a2-3)[GalNAc(b1-4)]Gal(b1-4)Glc
# Method in brief: as §1
# [18] = molecular target: Neu5Ac(a2-3)[GalNAc(b1-4)]Gal(b1-4)GlcNAc
# Method in brief: as §1
# [19] = molecular target: Neu5Ac(a2-3)[GalNAc(b1-4)]Gal(b1-4)GlcNAc(b1-3)GalNAc
# Method in brief: as §1
# [20] = molecular target: Neu5Ac(a2-3)[Neu5Ac(a2-6)]GalNAc
# Method in brief: as §1
# Neu5Ac(a2-6)Gal = molecular target: Neu5Ac(a2-6)Gal
# Method in brief: as §1
# [21] = molecular target: Neu5Ac(a2-6)Gal(b1-3)GlcNAc(b1-3)[Gal(b1-4)GlcNAc(b1-6)]Gal(b1-4)Glc
# Method in brief: as §1
# Neu5Ac(a2-6)Gal(b1-4)Glc = molecular target: Neu5Ac(a2-6)Gal(b1-4)Glc
# Method in brief: as §1
# [22] = molecular target: Neu5Ac(a2-6)Gal(b1-4)GlcNAc
# Method in brief: as §1
# [23] = molecular target: Neu5Ac(a2-6)Gal(b1-4)GlcNAc(b1-2)Man
# Method in brief: as §1
# [24] = molecular target: Neu5Ac(a2-6)Gal(b1-4)GlcNAc(b1-2)Man(a1-3)Man(b1-4)GlcNAc(b1-4)GlcNAc
# Method in brief: as §1
# [25] = molecular target: Neu5Ac(a2-6)Gal(b1-4)GlcNAc(b1-2)Man(a1-3)[Gal(b1-4)GlcNAc(b1-2)Man(a1-6)]Man(b1-4)GlcNAc(b1-4)GlcNAc
# Method in brief: as §1
# [26] = molecular target: Neu5Ac(a2-6)Gal(b1-4)GlcNAc(b1-2)Man(a1-3)[GlcNAc(b1-2)Man(a1-6)]Man(b1-4)GlcNAc(b1-4)GlcNAc
# Method in brief: as §1
# [27] = molecular target: Neu5Ac(a2-6)Gal(b1-4)GlcNAc(b1-2)Man(a1-3)[GlcNAc(b1-4)][Neu5Ac(a2-6)Gal(b1-4)GlcNAc(b1-2)Man(a1-6)]Man(b1-4)GlcNAc(b1-4)GlcNAc
# Method in brief: as §1
# [28] = molecular target: Neu5Ac(a2-6)Gal(b1-4)GlcNAc(b1-2)Man(a1-3)[Man(a1-6)]Man(b1-4)GlcNAc(b1-4)GlcNAc
# Method in brief: as §1
# [29] = molecular target: Neu5Ac(a2-6)Gal(b1-4)GlcNAc(b1-2)Man(a1-3)[Neu5Ac(a2-3)Gal(b1-4)GlcNAc(b1-2)Man(a1-6)]Man(b1-4)GlcNAc(b1-4)GlcNAc
# Method in brief: as §1
# [30] = molecular target: Neu5Ac(a2-6)Gal(b1-4)GlcNAc(b1-2)Man(a1-3)[Neu5Ac(a2-6)Gal(b1-4)GlcNAc(b1-2)Man(a1-6)]Man(b1-4)GlcNAc(b1-4)GlcNAc
# Method in brief: as §1
# [31] = molecular target: Neu5Ac(a2-6)Gal(b1-4)GlcNAc(b1-2)Man(a1-3)[Neu5Ac(a2-6)Gal(b1-4)GlcNAc(b1-2)Man(a1-6)]Man(b1-4)GlcNAc(b1-4)[Fuc(a1-6)]GlcNAc
# Method in brief: as §1
# [32] = molecular target: Neu5Ac(a2-6)Gal(b1-4)GlcNAc(b1-2)Man(a1-6)Man(b1-4)GlcNAc(b1-4)GlcNAc
# Method in brief: as §1
# [33] = molecular target: Neu5Ac(a2-6)Gal(b1-4)GlcNAc(b1-2)Man(a1-6)[Gal(b1-4)GlcNAc(b1-2)Man(a1-3)]Man(b1-4)GlcNAc(b1-4)GlcNAc
# Method in brief: as §1
# [34] = molecular target: Neu5Ac(a2-6)Gal(b1-4)GlcNAc(b1-2)Man(a1-6)[GlcNAc(b1-2)Man(a1-3)]Man(b1-4)GlcNAc(b1-4)GlcNAc
# Method in brief: as §1
# [35] = molecular target: Neu5Ac(a2-6)Gal(b1-4)GlcNAc(b1-2)Man(a1-6)[Man(a1-3)]Man(b1-4)GlcNAc(b1-4)GlcNAc
# Method in brief: as §1
# [36] = molecular target: Neu5Ac(a2-6)Gal(b1-4)GlcNAc(b1-2)[Neu5Ac(a2-6)Gal(b1-4)GlcNAc(b1-4)]Man(a1-3)[GlcNAc(b1-4)][Neu5Ac(a2-6)Gal(b1-4)GlcNAc(b1-2)[Neu5Ac(a2-6)Gal(b1-4)GlcNAc(b1-6)]Man(a1-6)]Man(b1-4)GlcNAc(b1-4)GlcNAc
# Method in brief: as §1
# [37] = molecular target: Neu5Ac(a2-6)Gal(b1-4)GlcNAc(b1-2)[Neu5Ac(a2-6)Gal(b1-4)GlcNAc(b1-4)]Man(a1-3)[GlcNAc(b1-4)][Neu5Ac(a2-6)Gal(b1-4)GlcNAc(b1-4)Man(a1-6)]Man(b1-4)GlcNAc(b1-4)GlcNAc
# Method in brief: as §1
# [38] = molecular target: Neu5Ac(a2-6)Gal(b1-4)GlcNAc(b1-2)[Neu5Ac(a2-6)Gal(b1-4)GlcNAc(b1-6)]Man(a1-6)[Neu5Ac(a2-6)Gal(b1-4)GlcNAc(b1-2)Man(a1-3)][GlcNAc(b1-4)]Man(b1-4)GlcNAc(b1-4)GlcNAc
# Method in brief: as §1
# [39] = molecular target: Neu5Ac(a2-6)Gal(b1-4)GlcNAc(b1-3)Gal(b1-3)GlcNAc
# Method in brief: as §1
# [40] = molecular target: Neu5Ac(a2-6)Gal(b1-4)GlcNAc(b1-3)Gal(b1-4)GlcNAc
# Method in brief: as §1
# [41] = molecular target: Neu5Ac(a2-6)Gal(b1-4)GlcNAc(b1-3)Gal(b1-4)GlcNAc(b1-2)Man(a1-3)[Neu5Ac(a2-6)Gal(b1-4)GlcNAc(b1-3)Gal(b1-4)GlcNAc(b1-2)Man(a1-6)]GalNAc
# Method in brief: as §1
# [42] = molecular target: Neu5Ac(a2-6)Gal(b1-4)GlcNAc(b1-3)Gal(b1-4)GlcNAc(b1-3)Gal(b1-4)GlcNAc
# Method in brief: as §1
# [43] = molecular target: Neu5Ac(a2-6)Gal(b1-4)GlcNAc(b1-3)Gal(b1-4)GlcNAc(b1-3)Gal(b1-4)GlcNAc(b1-2)Man(a1-3)[Neu5Ac(a2-6)Gal(b1-4)GlcNAc(b1-3)Gal(b1-4)GlcNAc(b1-3)Gal(b1-4)GlcNAc(b1-2)Man(a1-6)]GalNAc
# Method in brief: as §1
binder,measurement,setting,value
TAL6-4LysM (Trichoderma atroviride) (protein) AADSIPSISPTGIITPTPTQSGMVSNCNKFYDVHSNDGCSAIASSQHVDLSSLYKWNPAIKTDCSGLQASVYVCIGILTTSMSTTSKLPTTTSKPSTTSKPPTGITTPTPTQSGMVKNCNKFYDVHSGDGCSAIASSQKVNLSSFYLWNPAVKTDCSGLQASVFVCIGTLTTSMSTTTSKLPTTTSKPSTTSKPPTGIITPTPTQNGMVKNCNKFYDVHSGDGCSAIASSQKVNLSSFYLWNPAVKTDCSGLQASVFVCVGTATTTTAAGITTPTPTQSGMVSGCNKFYDVHAGDGCSAIASSQKIALSSLYKWNPAVKTDCSGLQASVYICIGVGNAAAARVTGALEQKLISEEDLNSAVDHHHHHH,glycan array binding signal (z-score),[1],0.12
same,glycan array binding signal (z-score),[2],-0.586
same,glycan array binding signal (z-score),[3],-1.46
same,glycan array binding signal (z-score),[4],0.471
same,glycan array binding signal (z-score),[5],-0.955
same,glycan array binding signal (z-score),[6],-1.26
same,glycan array binding signal (z-score),[7],0.373
same,glycan array binding signal (z-score),[8],2
same,glycan array binding signal (z-score),[9],-0.188
same,glycan array binding signal (z-score),[10],-0.18
same,glycan array binding signal (z-score),[11],-0.34
same,glycan array binding signal (z-score),[12],-0.872
same,glycan array binding signal (z-score),[13],1.11
same,glycan array binding signal (z-score),[14],0.867
same,glycan array binding signal (z-score),[15],-1.06
same,glycan array binding signal (z-score),Neu5Ac(a2-3)GalNAc,0.413
same,glycan array binding signal (z-score),[16],0.198
same,glycan array binding signal (z-score),[17],-1.03
same,glycan array binding signal (z-score),[18],-0.761
same,glycan array binding signal (z-score),[19],0.779
same,glycan array binding signal (z-score),[20],-0.633
same,glycan array binding signal (z-score),Neu5Ac(a2-6)Gal,-0.128
same,glycan array binding signal (z-score),[21],0.176
same,glycan array binding signal (z-score),Neu5Ac(a2-6)Gal(b1-4)Glc,0.221
same,glycan array binding signal (z-score),[22],1.91
same,glycan array binding signal (z-score),[23],-0.77
same,glycan array binding signal (z-score),[24],1.14
same,glycan array binding signal (z-score),[25],0.148
same,glycan array binding signal (z-score),[26],-0.493
same,glycan array binding signal (z-score),[27],-0.336
same,glycan array binding signal (z-score),[28],-1.28
same,glycan array binding signal (z-score),[29],0.793
same,glycan array binding signal (z-score),[30],-0.408
same,glycan array binding signal (z-score),[31],0.573
same,glycan array binding signal (z-score),[32],-1.04
same,glycan array binding signal (z-score),[33],0.656
same,glycan array binding signal (z-score),[34],-0.839
same,glycan array binding signal (z-score),[35],-0.594
same,glycan array binding signal (z-score),[36],0.213
same,glycan array binding signal (z-score),[37],-1.62
same,glycan array binding signal (z-score),[38],-0.279
same,glycan array binding signal (z-score),[39],0.252
same,glycan array binding signal (z-score),[40],-0.421
same,glycan array binding signal (z-score),[41],-1.39
same,glycan array binding signal (z-score),[42],-1.09
same,glycan array binding signal (z-score),[43],-0.881

# As a working copy, some entries already given.
binder,measurement,setting,value
TAL6-4LysM (Trichoderma atroviride) (protein) AADSIPSISPTGIITPTPTQSGMVSNCNKFYDVHSNDGCSAIASSQHVDLSSLYKWNPAIKTDCSGLQASVYVCIGILTTSMSTTSKLPTTTSKPSTTSKPPTGITTPTPTQSGMVKNCNKFYDVHSGDGCSAIASSQKVNLSSFYLWNPAVKTDCSGLQASVFVCIGTLTTSMSTTTSKLPTTTSKPSTTSKPPTGIITPTPTQNGMVKNCNKFYDVHSGDGCSAIASSQKVNLSSFYLWNPAVKTDCSGLQASVFVCVGTATTTTAAGITTPTPTQSGMVSGCNKFYDVHAGDGCSAIASSQKIALSSLYKWNPAVKTDCSGLQASVYICIGVGNAAAARVTGALEQKLISEEDLNSAVDHHHHHH,glycan array binding signal (z-score),[1],0.12
same,glycan array binding signal (z-score),[2],-0.586
